These are yes or no findings as the source states them, for the method shown. In cells and extracts the contact can be indirect. Some results given as binding are weak or reduced against the parent protein; the word gives no strength. For some of these results: Where a sequence is shown, tags or fusion partners need not be part of it.

One assay addresses T1, GIPC2-AcGFP (human) (UniProt Q8TF65).
T1 sequence: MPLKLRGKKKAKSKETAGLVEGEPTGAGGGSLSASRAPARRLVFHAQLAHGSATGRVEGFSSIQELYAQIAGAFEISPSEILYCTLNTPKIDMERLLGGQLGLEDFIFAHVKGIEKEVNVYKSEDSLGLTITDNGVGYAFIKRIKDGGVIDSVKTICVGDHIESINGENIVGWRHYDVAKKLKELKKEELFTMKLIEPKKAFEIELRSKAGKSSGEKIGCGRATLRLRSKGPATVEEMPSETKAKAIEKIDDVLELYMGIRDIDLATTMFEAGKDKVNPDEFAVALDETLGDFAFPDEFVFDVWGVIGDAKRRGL
Briefly: FRET or BRET; FRET in PC12 cells co-transfected with GIPC2-AcGFP and mcherry fusions, 48 h after transfection; percentage of energy transfer efficiency. In general terms: Bioluminescence resonance energy transfer reports proximity on the nanometre scale.

In assay [1] the target is T2, GST fused to GIPC2 (human) (UniProt Q8TF65).
T2 sequence: T1 sequence
In words: pull-down; bacterially expressed GST fusions on GST-beads incubated with 293T lysates, washed, western blot for NONO; only the target purified. (In general: Immunoblotting shows a protein as a band on a membrane.)

Another assay concerns the target T3, GIPC2-HA (human) (UniProt Q8TF65).
T3 sequence: T1 sequence
In words: co-IP; whole-cell lysates of 293T cells co-transfected with GIPC2-HA and His-NONO; precipitation with Ni-NTA agarose and with anti-GIPC2, immunoblot.

In assay [2] the target is T4, GIPC2 (endogenous, hPheo1) (human (endogenous in hPheo1)) (UniProt Q8TF65).
T4 sequence: T1 sequence
Briefly: co-IP; whole-cell lysates of hPheo1 cells immunoprecipitated with anti-GIPC2 or IgG, immunoblot; endogenous proteins.

B1: mcherry-NONO (protein, UniProt Q15233 1-471)
chain: MQSNKTFNLEKQNHTPRKHHQHHHQQQHHQQQQQQPPPPPIPANGQQASSQNEGLTIDLKNFRKPGEKTFTQRSRLFVGNLPPDITEEEMRKLFEKYGKAGEVFIHKDKGFGFIRLETRTLAEIAKVELDNMPLRGKQLRVRFACHSASLTVRNLPQYVSNELLEEAFSVFGQVERAVVIVDDRGRPSGKGIVEFSGKPAARKALDRCSEGSFLLTTFPRPVTVEPMDQLDDEEGLPEKLVIKNQQFHKEREQPPRFAQPGSFEYEYAMRWKALIEMEKQQQDQVDRNIKEAREKLEMEMEAARHEHQVMLMRQDLMRRQEELRRMEELHNQEVQKRKQLELRQEEERRRREEEMRRQQEEMMRRQQEGFKGTFPDAREQEIRMGQMAMGGAMGINNRGAMPPAPVPAGTPAPPGPATMMPDGTLGLTPPTTERFGQAATMEGIGAIGGTPPAFNRAAPGAEFAPNKRRRY
Take B1: the binding result in the assay with GIPC2-AcGFP (human) is given as “binds”.

B2: NONO (endogenous, 293T) (protein, UniProt Q15233 1-471)
chain: B1 chain
In the case of B2, the binding result in assay [1] is listed as “binds”.

B3: His-NONO (protein, UniProt Q15233 1-471)
chain: B1 chain
For the molecule B3, the binding result in the assay with GIPC2-HA (human) is reported as “binds”.

B4: NONO (endogenous, hPheo1) (protein, UniProt Q15233 1-471)
chain: B1 chain
In the case of B4, the binding entry in assay [2] is given as “binds”.
